# Measured values from article PMC12324675.
# Chains of the proteins cited; added tags and fusions are not shown. Lines headed by an entry give the natural chain unless they say otherwise; changes in a name come on top.
# UniProt P25490: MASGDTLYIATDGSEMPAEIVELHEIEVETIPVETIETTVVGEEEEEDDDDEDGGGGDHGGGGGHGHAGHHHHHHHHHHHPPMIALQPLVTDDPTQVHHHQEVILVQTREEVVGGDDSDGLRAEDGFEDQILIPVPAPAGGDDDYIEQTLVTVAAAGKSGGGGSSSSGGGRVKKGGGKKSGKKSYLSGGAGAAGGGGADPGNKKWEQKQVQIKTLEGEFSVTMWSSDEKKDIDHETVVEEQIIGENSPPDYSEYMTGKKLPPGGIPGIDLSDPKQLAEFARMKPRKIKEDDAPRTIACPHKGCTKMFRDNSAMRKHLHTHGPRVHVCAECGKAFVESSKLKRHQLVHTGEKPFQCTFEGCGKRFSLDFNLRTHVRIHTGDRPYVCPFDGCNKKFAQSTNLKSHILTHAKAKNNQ
# UniProt P0DTC3: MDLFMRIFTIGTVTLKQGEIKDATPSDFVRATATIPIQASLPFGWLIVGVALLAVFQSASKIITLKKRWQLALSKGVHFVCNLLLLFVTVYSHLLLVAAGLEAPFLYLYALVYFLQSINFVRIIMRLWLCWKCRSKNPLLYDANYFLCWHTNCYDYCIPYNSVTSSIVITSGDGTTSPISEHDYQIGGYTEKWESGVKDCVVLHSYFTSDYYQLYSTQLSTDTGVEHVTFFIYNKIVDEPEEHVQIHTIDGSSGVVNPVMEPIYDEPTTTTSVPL
# Results are given in words; binding and its absence hold for the method and conditions named. In cells and extracts the contact can be indirect.
# Target: YY1Δ4 (deletion of the zinc finger domain), 3×Flag-tagged (pcDNA3.1(+)-3 × Flag-YY1-Δ4) (UniProt P25490)
# Experiment: co-IP; […] (20 mM Tris-HCl pH 7.5, 100 mM NaCl, 0.5 mM EDTA, 5% glycerol, 1% Triton X-100); […]
substance,measurement,value
"SARS-CoV-2 ORF3a, HA-tagged (pCAGGS-HA-ORF3a) (from UniProt P0DTC3 1-275)",binding,no binding
